Residue numbers refer to the chain shown, from its start. These are yes or no findings as the source states them, for the method shown. In cells and extracts the contact can be indirect. Some entries that bind do so weakly or less than the wild type. For some assays here: Tags and fused reporters may be left off the sequences shown.
Columns and labels:
[1] = target: T1, HA-tagged human TRIM28-K304R (human) (UniProt Q13263); test: co-IP; HA-tagged human TRIM28 (WT, K304Q, K304R) cotransfected with Myc-DDK-tagged ZNF558 or ZNF785; TRIM28-KO cells by the text, HEK293T cells by the legend; three independent experiments
T1 sequence: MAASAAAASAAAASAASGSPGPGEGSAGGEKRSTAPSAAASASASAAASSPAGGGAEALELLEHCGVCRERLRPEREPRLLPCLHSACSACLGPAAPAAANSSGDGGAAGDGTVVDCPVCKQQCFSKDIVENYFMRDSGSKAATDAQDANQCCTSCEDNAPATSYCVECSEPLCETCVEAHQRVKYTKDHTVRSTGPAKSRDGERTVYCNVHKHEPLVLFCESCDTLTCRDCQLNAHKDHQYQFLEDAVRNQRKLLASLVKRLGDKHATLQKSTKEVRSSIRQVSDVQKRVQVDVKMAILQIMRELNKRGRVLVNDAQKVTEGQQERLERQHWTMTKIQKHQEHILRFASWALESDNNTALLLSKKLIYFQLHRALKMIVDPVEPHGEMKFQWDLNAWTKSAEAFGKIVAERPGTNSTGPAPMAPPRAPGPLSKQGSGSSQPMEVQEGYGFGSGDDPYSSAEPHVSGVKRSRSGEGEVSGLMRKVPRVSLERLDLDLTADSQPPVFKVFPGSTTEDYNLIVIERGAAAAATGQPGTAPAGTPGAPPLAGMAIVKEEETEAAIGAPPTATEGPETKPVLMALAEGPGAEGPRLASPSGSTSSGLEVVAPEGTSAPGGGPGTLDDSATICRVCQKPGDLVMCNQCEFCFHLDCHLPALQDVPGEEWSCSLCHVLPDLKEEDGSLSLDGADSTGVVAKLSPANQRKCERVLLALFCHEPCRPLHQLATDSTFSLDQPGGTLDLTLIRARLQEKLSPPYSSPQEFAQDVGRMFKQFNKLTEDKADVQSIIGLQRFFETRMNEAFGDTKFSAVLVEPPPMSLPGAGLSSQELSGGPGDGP

Amino acid sequences for entries named in this document (tags omitted).
UniProt Q96NG5: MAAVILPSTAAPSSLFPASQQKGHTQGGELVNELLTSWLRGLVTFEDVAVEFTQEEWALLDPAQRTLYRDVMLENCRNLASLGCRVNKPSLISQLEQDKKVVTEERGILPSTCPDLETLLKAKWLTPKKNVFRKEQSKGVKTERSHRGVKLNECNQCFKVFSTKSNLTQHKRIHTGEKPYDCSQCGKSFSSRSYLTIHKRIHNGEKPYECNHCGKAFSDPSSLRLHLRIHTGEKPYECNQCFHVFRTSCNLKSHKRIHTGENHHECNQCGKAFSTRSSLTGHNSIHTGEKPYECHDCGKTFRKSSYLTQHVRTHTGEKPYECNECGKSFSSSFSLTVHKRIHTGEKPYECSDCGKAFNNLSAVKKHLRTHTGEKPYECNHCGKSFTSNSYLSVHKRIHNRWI
UniProt A8K8V0: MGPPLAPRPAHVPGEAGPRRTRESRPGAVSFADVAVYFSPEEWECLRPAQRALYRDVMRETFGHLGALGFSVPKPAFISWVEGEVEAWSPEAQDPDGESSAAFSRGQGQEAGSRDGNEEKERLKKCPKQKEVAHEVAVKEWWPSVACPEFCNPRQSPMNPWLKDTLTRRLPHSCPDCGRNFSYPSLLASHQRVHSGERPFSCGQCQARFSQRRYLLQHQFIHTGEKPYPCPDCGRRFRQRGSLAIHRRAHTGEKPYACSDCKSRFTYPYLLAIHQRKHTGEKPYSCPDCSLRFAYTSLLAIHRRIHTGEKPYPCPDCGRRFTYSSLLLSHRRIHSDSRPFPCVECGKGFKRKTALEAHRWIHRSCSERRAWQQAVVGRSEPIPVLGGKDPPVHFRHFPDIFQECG
UniProt P59923: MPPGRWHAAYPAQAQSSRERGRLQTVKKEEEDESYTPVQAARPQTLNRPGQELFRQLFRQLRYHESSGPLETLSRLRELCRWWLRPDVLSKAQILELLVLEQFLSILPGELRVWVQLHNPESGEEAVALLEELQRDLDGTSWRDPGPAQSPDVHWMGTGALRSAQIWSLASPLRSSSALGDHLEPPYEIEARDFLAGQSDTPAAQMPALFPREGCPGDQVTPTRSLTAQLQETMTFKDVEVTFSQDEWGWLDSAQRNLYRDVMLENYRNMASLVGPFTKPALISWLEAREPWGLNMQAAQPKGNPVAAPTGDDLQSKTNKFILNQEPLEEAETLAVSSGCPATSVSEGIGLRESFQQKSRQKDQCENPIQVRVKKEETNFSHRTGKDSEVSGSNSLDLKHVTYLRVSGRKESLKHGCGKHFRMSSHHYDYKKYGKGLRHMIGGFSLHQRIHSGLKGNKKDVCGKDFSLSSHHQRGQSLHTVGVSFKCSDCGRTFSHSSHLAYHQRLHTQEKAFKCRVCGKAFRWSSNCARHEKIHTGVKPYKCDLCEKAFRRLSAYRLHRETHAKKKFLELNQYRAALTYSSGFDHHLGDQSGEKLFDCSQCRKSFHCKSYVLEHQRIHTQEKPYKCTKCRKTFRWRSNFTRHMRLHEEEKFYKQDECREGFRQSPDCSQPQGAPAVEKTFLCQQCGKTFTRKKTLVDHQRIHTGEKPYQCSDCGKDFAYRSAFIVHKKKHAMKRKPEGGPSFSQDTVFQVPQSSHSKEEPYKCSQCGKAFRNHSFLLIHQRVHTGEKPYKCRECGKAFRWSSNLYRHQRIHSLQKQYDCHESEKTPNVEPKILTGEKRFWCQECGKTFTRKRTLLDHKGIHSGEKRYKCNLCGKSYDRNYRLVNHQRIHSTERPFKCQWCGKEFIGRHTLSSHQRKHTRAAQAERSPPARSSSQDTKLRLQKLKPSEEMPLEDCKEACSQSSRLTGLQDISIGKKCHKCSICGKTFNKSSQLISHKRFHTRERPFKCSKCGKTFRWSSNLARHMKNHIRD

[2] = target: HA-tagged human TRIM28 wild-type (human) (UniProt Q13263); test: as above
[3] = target: T2, HA-tagged human TRIM28-K304Q (human) (UniProt Q13263); test: as above
T2 sequence: T1 sequence with R304Q

[4] = target: T3, TRIM28-K304Q (endogenous, knock-in K562 clone Q1) (human (endogenous in K562)) (UniProt Q13263); test: co-IP; endogenous proteins in wild-type, TRIM28-K304Q KI and TRIM28-KO K562 cells; precipitated by anti-TRIM28-N, Western blotted with anti-ZNF445
T3 sequence: T1 sequence with R304Q

[5] = target: wild-type TRIM28 (endogenous, K562 cells) (human (endogenous in K562)) (UniProt Q13263); test: as above

Row | binding [1] | binding [2] | binding [3] | binding [4] | binding [5] | Substance
1 | binds | binds | binds weakly |  |  | Myc-DDK-tagged ZNF558 (from UniProt Q96NG5 1-402)
2 | binds | binds | binds |  |  | Myc-DDK-tagged ZNF785 (from UniProt A8K8V0 1-405)
3 |  |  |  | binds weakly | binds | ZNF445 (from UniProt P59923 1-1031)

— paper PMC10298087
